This passage reports binding results from US20190085095A1.

The chains behind the UniProt entries cited, without tags or fusion partners. Residues count along the entry.
UniProt P01031, residues 19-1676: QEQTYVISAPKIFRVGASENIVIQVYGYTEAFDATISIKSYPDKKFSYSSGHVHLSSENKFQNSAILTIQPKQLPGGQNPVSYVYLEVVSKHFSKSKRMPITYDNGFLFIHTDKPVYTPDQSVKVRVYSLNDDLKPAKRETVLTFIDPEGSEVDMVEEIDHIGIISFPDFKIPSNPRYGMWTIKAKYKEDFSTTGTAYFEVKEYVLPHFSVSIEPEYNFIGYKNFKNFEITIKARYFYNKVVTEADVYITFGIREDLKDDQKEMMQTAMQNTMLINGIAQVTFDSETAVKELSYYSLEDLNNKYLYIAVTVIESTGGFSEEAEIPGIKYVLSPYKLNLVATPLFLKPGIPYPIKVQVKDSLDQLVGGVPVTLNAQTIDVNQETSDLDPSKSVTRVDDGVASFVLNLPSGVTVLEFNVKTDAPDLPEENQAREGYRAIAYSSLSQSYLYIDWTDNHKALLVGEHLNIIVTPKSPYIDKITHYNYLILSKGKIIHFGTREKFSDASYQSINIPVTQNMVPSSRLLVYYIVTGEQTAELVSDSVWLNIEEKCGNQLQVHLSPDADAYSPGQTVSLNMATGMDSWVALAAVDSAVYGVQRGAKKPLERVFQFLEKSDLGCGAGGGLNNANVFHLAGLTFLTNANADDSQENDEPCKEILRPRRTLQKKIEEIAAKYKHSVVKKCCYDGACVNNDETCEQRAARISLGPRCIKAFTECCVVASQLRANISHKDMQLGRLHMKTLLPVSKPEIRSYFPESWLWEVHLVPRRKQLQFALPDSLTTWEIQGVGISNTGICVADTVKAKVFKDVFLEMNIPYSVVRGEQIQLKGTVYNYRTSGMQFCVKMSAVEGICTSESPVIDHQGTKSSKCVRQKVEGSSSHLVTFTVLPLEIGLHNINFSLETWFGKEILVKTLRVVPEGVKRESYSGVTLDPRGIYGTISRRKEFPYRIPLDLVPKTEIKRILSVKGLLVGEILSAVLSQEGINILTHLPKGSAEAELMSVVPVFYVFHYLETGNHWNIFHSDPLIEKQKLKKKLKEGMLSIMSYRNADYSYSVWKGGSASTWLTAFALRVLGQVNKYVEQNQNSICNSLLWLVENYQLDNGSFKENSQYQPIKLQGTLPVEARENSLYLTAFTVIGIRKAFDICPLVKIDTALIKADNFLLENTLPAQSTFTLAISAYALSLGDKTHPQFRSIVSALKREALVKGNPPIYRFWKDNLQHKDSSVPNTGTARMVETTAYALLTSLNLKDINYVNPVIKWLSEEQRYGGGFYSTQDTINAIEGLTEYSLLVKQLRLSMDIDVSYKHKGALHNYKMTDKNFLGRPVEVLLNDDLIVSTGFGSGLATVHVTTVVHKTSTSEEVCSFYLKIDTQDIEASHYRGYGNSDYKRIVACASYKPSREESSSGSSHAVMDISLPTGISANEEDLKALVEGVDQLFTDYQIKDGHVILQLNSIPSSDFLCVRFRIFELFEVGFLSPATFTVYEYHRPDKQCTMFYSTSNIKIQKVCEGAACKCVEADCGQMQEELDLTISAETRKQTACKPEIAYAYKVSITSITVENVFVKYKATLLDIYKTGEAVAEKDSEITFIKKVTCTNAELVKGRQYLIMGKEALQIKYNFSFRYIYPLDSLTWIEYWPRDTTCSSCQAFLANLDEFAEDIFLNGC

No constants are given. Whether binding was seen depends on the method and setting. Some entries that bind do so weakly or less than the wild type.

The target in experiment [1] is human complement component 5 (C5) (human) (UniProt P01031). The experiment is described as follows: binding curves to hC5 at pH 5.5 (FIG. 14).
Experiment [2] shares this target. The experiment is described as follows: SPR (Biacore), binding to hC5 over time at pH 5.5; antibody with IgG2 Fc.

B1: Antibody D (antibody, human IgG2, kappa)
heavy: QVQLVQSGAEVKKPGASVKVSCKASGYIFSNYWIQWVRQAPGQGLEWMGEILPGSGSTEYTENFKDRVTMTRDTSTSTVYMELSSLRSEDTAVYYCARYHFGSSPNWYFDVWGQGTLVTVSSASTKGPSVFPLAPCSRSTSESTAALGCLVKDYFPEPVTVSWNSGALTSGVHTFPAVLQSSGLYSLSSVVTVPSSNFGTQTYTCNVDHKPSNTKVDKTVERKCCVECPPCPAPPVAGPSVFLFPPKPKDTLMISRTPEVTCVVVDVSHEDPEVQFNWYVDGVEVHNAKTKPREEQFNSTFRVVSVLTVVHQDWLNGKEYKCKVSNKGLPAPIEKTISKTKGQPREPQVYTLPPSREEMTKNQVSLTCLVKGFYPSDIAVEWESNGQPENNYKTTPPMLDSDGSFFLYSKLTVDKSRWQQGNVFSCSVMHEALHNHYTQKSLSLSPGK
light: DIQMTQSPSSLSASVGDRVTITCGASENIYGALNWYQQKPGKAPKLLIYGATNLADGVPSRFSGSGSGTDFTLTISSLQPEDFATYYCQNVLHTPLTFGQGTKVEIKRTVAAPSVFIFPPSDEQLKSGTASVVCLLNNFYPREAKVQWKVDNALQSGNSQESVTEQDSKDSTYSLSSTLTLSKADYEKHKVYACEVTHQGLSSPVTKSFNRGEC
As to B1, the binding entry in experiment [1] and in experiment [2] was “binds” throughout.
